Binding data for three substances are collected here from patent US20220170038A1.

Sequences of proteins named here, by UniProt entry; tags and fusion partners are left off. A change or cut given only in a name is not applied to a line headed by its entry.
UniProt P16267: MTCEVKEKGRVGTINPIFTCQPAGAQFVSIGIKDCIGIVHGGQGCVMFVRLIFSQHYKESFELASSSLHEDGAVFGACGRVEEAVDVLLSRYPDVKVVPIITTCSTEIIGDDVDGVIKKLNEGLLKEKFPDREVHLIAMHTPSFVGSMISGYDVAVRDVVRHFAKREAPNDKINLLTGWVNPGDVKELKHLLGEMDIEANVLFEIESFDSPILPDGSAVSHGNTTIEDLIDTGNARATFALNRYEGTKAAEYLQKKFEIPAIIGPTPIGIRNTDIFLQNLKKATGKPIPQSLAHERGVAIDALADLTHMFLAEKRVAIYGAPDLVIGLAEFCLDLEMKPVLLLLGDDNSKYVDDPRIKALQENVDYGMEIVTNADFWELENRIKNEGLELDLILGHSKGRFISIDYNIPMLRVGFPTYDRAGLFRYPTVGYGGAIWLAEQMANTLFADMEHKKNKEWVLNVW
UniProt P16266: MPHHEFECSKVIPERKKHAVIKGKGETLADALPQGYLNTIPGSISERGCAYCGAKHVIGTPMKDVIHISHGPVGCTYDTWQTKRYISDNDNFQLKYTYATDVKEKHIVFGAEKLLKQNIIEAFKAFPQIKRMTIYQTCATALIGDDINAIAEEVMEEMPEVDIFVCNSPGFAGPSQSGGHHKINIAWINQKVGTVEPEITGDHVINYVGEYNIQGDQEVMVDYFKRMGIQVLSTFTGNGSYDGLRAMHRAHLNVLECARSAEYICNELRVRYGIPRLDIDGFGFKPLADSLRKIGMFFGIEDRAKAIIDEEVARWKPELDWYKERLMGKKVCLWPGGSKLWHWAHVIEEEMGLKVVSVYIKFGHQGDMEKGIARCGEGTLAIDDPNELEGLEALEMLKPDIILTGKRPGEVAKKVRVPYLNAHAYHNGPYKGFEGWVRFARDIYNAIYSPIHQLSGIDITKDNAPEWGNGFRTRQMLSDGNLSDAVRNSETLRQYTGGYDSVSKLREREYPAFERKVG

The target of experiment [1] is MPP-processed product of the MTP-CoxIV::Twin Strep::AnfK fusion polypeptide (SN195; encoded by SL34, SL37 and SL43) (Azotobacter vinelandii) (UniProt P16267). Description: LC-MS and targeted MRM of the Strep-tactin XT eluate from SL37 leaves (anaerobic).
Experiment [2] has the same target. Description: Strep-tactin XT pull-down of TwinStrep::AnfK from SL37-infiltrated leaves, anaerobic; anti-HA Western blot of the eluate.
Experiment [3] shares this target. The experiment in a line: LC-MS and targeted MRM of the Strep-tactin XT eluate from SL34 leaves (aerobic).
The target is the same in experiment [4]. The experiment in a line: StrepTactin XT pull-down of TwinStrep::AvAnfK from leaves co-infiltrated with SL43 and SL49, anaerobic; anti-HA Western blot of the eluate. Background: In western blotting, separated proteins are transferred to a membrane and probed.
The target is the same in experiment [5]. Description: discussion of the Strep-tactin XT pull-down of TwinStrep::AnfK (SL34), aerobic.
The target is the same in experiment [6]. The experiment in a line: Strep-tactin XT pull-down of TwinStrep::AnfK from SL34-infiltrated leaves, aerobic; anti-HA Western blot of the eluate.
The target in experiment [7] is MPP-processed product of the MTP-FAγ51::AnfD::Twin Strep fusion polypeptide encoded by SL30 (Azotobacter vinelandii) (UniProt P16266). The experiment in a line: Strep-tactin XT pull-down of AnfD::TwinStrep from SL30-infiltrated leaves, aerobic; anti-HA Western blot of the eluate (faint but clearly visible band).
For experiment [8] the target is unchanged. The experiment in a line: discussion of the Strep-tactin XT pull-down of AnfD::TwinStrep (SL30), aerobic.

These are yes or no findings as the source states them, for the method shown. Binding seen in cells or lysates may run through a third protein. Some entries that bind do so weakly or less than the wild type.

Regarding “MPP-processed product of the MTP-FAγ51::AnfD::HA fusion polypeptide (SN81; encoded by SL37) (from UniProt P16266 1-518) (enzyme)”, the binding result in experiment [1] and in experiment [2] was “binds” throughout.
For the substance “MPP-processed product of the MTP-FAγ51::HA::AnfD fusion polypeptide (SN161; also encoded by SL26, SL34 and SL43) (from UniProt P16266 1-518) (enzyme)”, the binding result in experiment [3], in experiment [4], in experiment [5] and in experiment [6] was “binds” each time.
As to “MPP-processed product of the MTP-FAγ51::HA::AnfK fusion polypeptide (SN129; also encoded by SL26 and SL30) (from UniProt P16267 1-462) (enzyme)”, the binding result in experiment [7] and in experiment [8] was “binds” in each case.
